According to article PMC6207862:
These are yes or no findings as the source states them, for the method shown. Some results given as binding are weak or reduced against the parent protein; the word gives no strength.

Protein sequences, listed by entry. Tags and fused reporters are not part of them. Residues count along the entry.
UniProt Q9JHJ8, residues 47-277: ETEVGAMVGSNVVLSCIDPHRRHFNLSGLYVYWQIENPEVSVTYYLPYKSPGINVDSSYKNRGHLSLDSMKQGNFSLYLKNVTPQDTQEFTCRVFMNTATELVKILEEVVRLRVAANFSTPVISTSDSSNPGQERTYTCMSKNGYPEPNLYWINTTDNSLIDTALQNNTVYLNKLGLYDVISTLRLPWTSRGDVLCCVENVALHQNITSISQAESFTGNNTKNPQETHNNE

Molecular target: T1, murine ICOS receptor on CHO cells (mouse) (UniProt Q9WVS0)
T1 sequence: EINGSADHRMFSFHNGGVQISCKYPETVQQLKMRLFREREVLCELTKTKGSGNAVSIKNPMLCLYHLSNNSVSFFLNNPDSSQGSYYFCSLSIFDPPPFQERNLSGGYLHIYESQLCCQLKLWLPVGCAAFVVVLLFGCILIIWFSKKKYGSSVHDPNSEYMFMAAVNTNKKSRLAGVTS
Assay: cell-based ligand-receptor blocking assay; ICOSL-Fc in solution binding to CHO cells expressing murine or human ICOS receptor, with serial dilutions of anti-ICOSL VNAR-Fc; details in ref. 42; only the binder purified

binding: binds
Substance: mICOSL-Fc (from UniProt Q9JHJ8 47-277) (Fc fusion)
